From US20260275319A1, “ARCHAEAL PEPTIDE RECOMBINASE – A NOVEL PEPTIDE LIGATING ENZYME” (MAX-PLANCK-GESELLSCHAFT ZUR FÖRDERUNG DER WISSENSCHAFTEN …, priority 2019, published 2026)

Sequences of proteins named here, by UniProt entry; tags and fusion partners are left off. A change or cut given only in a name is not applied to a line headed by its entry.
UniProt Q58261: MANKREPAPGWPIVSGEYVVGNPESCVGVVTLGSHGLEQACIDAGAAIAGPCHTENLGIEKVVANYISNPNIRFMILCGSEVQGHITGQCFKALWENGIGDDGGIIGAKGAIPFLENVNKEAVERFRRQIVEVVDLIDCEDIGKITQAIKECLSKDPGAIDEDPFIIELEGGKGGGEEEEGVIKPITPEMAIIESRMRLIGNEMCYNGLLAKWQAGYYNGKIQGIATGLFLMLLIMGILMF

Experiments:
[1] = target: T1, M. jannaschii MtrA^Δ194-245 (Methanocaldococcus jannaschii) (UniProt Q58261); experiment: size exclusion chromatography, 1:1 molar mixture; no shifted peak
T1 sequence: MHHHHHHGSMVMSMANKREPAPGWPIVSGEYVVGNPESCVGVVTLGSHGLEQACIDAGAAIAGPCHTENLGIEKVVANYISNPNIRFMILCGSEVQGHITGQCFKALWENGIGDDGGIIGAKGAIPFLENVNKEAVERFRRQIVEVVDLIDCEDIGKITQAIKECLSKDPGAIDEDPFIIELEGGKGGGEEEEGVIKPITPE

[2] = target: T1, M. jannaschii MtrA^Δ194-245 (Methanocaldococcus jannaschii); experiment: size exclusion chromatography, 1:1 molar mixture of 200 µM proteins; no shifted peak

Substance: M. jannaschii Adriase S1A without OB, with C-terminal His-tag (enzyme)
- binding [1]: binds
- binding [2]: binds

No constants are given. Whether binding was seen depends on the method and setting. Binding can be weak; no strength is given.
